The record followed here is patent US20090305995A1 (Novartis AG, priority 2004, published 2009).

Some peptides are written in HELM: one residue between dots, names in brackets for other building blocks, links after the first $. Some results are limits rather than exact numbers.

The nature of the first data set: general procedure: solution-phase peptide synthesis; carbonyldiimidazole (for C-terminal amine building blocks). Particulars: whole synthesis, HPLC, HR-MS, LC-MS, 1D- and 2D-NMR.
“PEPTIDE1{[Ac].[b3hPhe].[dW].[b3hLys].[HThrNH2]}$$$$V2.0 [2]”: the “purity (crude or final not stated)” value was over 94%.

As to “PEPTIDE1{[AdaCO].[b3hPhe].[dW].[b3hLys].[HThrNH2]}$$$$V2.0”, the “purity (crude or final not stated)” value is on record as over 87%.

Turning to “PEPTIDE1{[Bz].[b3hPhe].[dW].[b3hLys].[HThrNH2]}$$$$V2.0”, the “purity (crude or final not stated)” value was over 93%.

Turning to “PEPTIDE1{[HCin].[b3hPhe].[dW].[b3hLys].[HThrNH2]}$$$$V2.0”, the “purity (crude or final not stated)” value is on record as over 97%.

“PEPTIDE1{[Non].[b3hPhe].[dW].[b3hLys].[HThrNH2]}$$$$V2.0”: the “purity (crude or final not stated)” value was over 97%.

Consider “PEPTIDE1{[b3hPhe].[dW].[b3hLys].[HThrNH2]}$$$$V2.0”, for which the “purity (crude or final not stated)” value is listed as over 99%.

As to “PEPTIDE1{[cHexCO].[b3hPhe].[dW].[b3hLys].[HThrNH2]}$$$$V2.0”, the “purity (crude or final not stated)” value was over 89%.

The same data set, now with this note: whole synthesis, HR-MS, LC-MS, 1D- and 2D-NMR.
With “Ac—(S)-β^3-HPhe-(R)-Trp-(S)-β^3-HLys-(R)-4-amino-(R)-5-methyl-dihydro-furan-2-one [7]”, the “final HPLC purity” value is over 99%.

For the substance “Cyclohexanoyl-(S)-β^3-HPhe-(R)-Trp-(S)-β^3-HLys-(R)-4-amino-(R)-5-methyl-dihydro-furan-2-one”, the “final HPLC purity” value was over 99%.

On to “Dihydrocinnemoyl-(S)-β^3-HPhe-(R)-1-Me-Trp-(S)-β^3-HLys-(R)-4-amino-(R)-5-methyl-dihydro-furan-2-one”, for which the “final HPLC purity” value stood at 96%.

On to “PEPTIDE1{[Ac].[Meb3hPhe].[dW].[b3hLys].[HThrLac]}$$$$V2.0”, for which the “final HPLC purity” value was over 99%.

Consider “PEPTIDE1{[Ac].[b3hPhe].[dW].[b3hLys].[NHcPent]}$$$$V2.0”, for which the “final HPLC purity” value is reported as over 99%.

For “PEPTIDE1{[Ac].[b3hPhe].[dW].[b3hLys].[b3Leu].[NEt2]}$$$$V2.0”, the “final HPLC purity” value was over 94%.

With “PEPTIDE1{[Ac].[b3hPhe].[dW].[b3hLys].[b3Leu].[NMePhEt]}$$$$V2.0”, the “final HPLC purity” value was over 99%.

Take “PEPTIDE1{[Ac].[b3hPhe].[med1MeW].[b3hLys].[HThrLac]}$$$$V2.0”: the “final HPLC purity” value is recorded as over 99%.

“PEPTIDE1{[Ac].[b3hPhe].[medW].[b3hLys].[HThrLac]}$$$$V2.0”: the “final HPLC purity” value is over 99%.

Consider “PEPTIDE1{[AdaCO].[b3hPhe].[d1MeW].[b3hLys].[HThrLac]}$$$$V2.0”, for which the “final HPLC purity” value was over 99%.

For the substance “PEPTIDE1{[AdaCO].[b3hPhe].[dW].[b3hLys].[HThrLac]}$$$$V2.0”, the “final HPLC purity” value is recorded as over 99%.

In the case of “PEPTIDE1{[AdaCO].[b3hPhe].[dW].[b3hLys].[b3Leu].[NMePhEt]}$$$$V2.0”, the “final HPLC purity” value is over 80%.

For “PEPTIDE1{[Bz].[b3hPhe].[dW].[b3hLys].[HThrLac]}$$$$V2.0”, the “final HPLC purity” value was over 91%.

As to “PEPTIDE1{[HCin].[b3hPhe].[dW].[b3hLys].[HThrLac]}$$$$V2.0”, the “final HPLC purity” value is over 99%.

With “PEPTIDE1{[HCin].[b3hPhe].[dW].[b3hLys].[b3Leu].[NEt2]}$$$$V2.0”, the “final HPLC purity” value is listed as over 99%.

For the substance “PEPTIDE1{[HCin].[b3hPhe].[dW].[b3hLys].[b3Leu].[NMePhEt]}$$$$V2.0”, the “final HPLC purity” value was over 93%.

On to “PEPTIDE1{[Meb3hPhe].[dW].[b3hLys].[HThrLac]}$$$$V2.0”, for which the “final HPLC purity” value is on record as over 99%.

As to “PEPTIDE1{[b3hPhe].[dW].[b3hLys].[HThrLac]}$$$$V2.0 [28]”, the “final HPLC purity” value was over 99%.
